From the supplement of paper PMC9254222
In all, about 1,100 compounds were measured (“Renilla luciferase signal (cell health) relative to plate median”: median about 0.97, highest 2% from about 1.6 on). The entries are a selection whose mix differs from that of the whole data set.

System: HEK293T (UBE3A T485A transfected, BAR Wnt reporter)
Assay: Renilla luciferase signal (cell health) relative to plate median (fold (linear ratio)); higher = higher Renilla signal
Settings: 24 h
Procedure, shortened: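 Chemicals at 0.01–100 uM were left on transfected HEK293T cells for 24 h, after a four-hour wait following transfection. The cells held a BAR firefly luciferase Wnt reporter, TK-Renilla and an expression plasmid. Wnt activity, as the firefly/Renilla ratio from a Dual-Glo luciferase readout, and cell health, as raw Renilla, were median-centred within each plate. Results average four biological replicates.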

Compound | Renilla luciferase signal (concentration: 0.1 uM) | Renilla luciferase signal (concentration: 1 uM) | Renilla luciferase signal (concentration: 10 uM) | Renilla luciferase signal (concentration: 100 uM) | Renilla luciferase signal (concentration: 0.01 uM)
CCCCOC(=O)c1ccc(O)cc1 [Butylparaben] | 0.848 | 0.85 | 0.756 | 0.258 | 
O=C(O)[C@H](O)[C@@H](O)C(=O)O [L-Tartaric acid] | 0.852 | 0.869 | 0.956 | 1.04 | 
CC1=CC(=O)CC(C)(C)C1 [Isophorone] | 1.01 | 1.07 | 1.05 | 1.17 | 
CC(=O)OCCOCCOCCOC(C)=O [Triethylene glycol diacetate] | 0.81 | 0.816 | 0.908 | 1.08 | 
CCC(C)OC(=O)N1CCCCC1CCO (stereo unspecified) [Icaridin] | 0.727 | 0.873 | 0.824 | 1.16 | 0.749
CC(C)(C)c1ccccc1 [tert-Butylbenzene] | 1.02 | 1.02 | 1.12 | 1.13 | 
COC(=O)c1ccccc1C(=O)O [Monomethyl phthalate] | 0.982 | 0.926 | 1.04 | 1.34 | 0.97
C/C=C/c1ccc(OC)cc1 [(E)-Anethole] | 0.769 | 0.707 | 0.82 | 0.978 | 
COc1ccc(OC(F)(F)F)cc1CN[C@H]1CCCN[C@H]1c1ccccc1 | 0.933 | 0.875 | 0.559 | 0.0333 | 
CC12CCC3c4ccc(O)cc4CCC3C1CCC2O (stereo not drawn) [17-beta-estradiol] | 0.917 | 0.959 | 1.23 | 0.0623 | 0.952
Cc1nn(C)c(Oc2ccccc2)c1C=NOCc1ccc(C(=O)OC(C)(C)C)cc1 [Fenpyroximate (Z,E)] | 1.14 | 0.78 | 0.334 | 0.0803 | 1.31
C=CCc1ccc(OC)c(OC)c1 [Methyleugenol] | 0.897 | 0.832 | 0.797 | 0.924 | 
O=C(O)c1cccnc1 [Nicotinic acid] | 1.13 | 1.2 | 1.18 | 1.48 | 
CCOC(=O)c1ccc([C@H]2CC[C@H](NC[C@H](O)COc3ccc(O)c(NS(C)(=O)=O)c3)CC2)cc1.Cl | 0.973 | 0.878 | 0.753 | 0.0262 | 
CCCCCCCCCCCO [1-Undecanol] | 1.03 | 1.2 | 1.09 | 1.34 | 
CC(C)c1cccc(C(C)C)c1 [1,3-Diisopropylbenzene] |  |  |  | 1.7 | 
O=C(c1ccc(O)cc1O)c1ccc(O)cc1O [2,2',4,4'-Tetrahydroxybenzophenone] | 0.947 | 0.856 | 1 | 0.112 | 

Compound | Renilla luciferase signal (concentration: 0.1 uM) | Renilla luciferase signal (concentration: 1 uM) | Renilla luciferase signal (concentration: 10 uM) | Renilla luciferase signal (concentration: 100 uM) | Renilla luciferase signal (concentration: 0.01 uM)
c1ccc2[nH]nnc2c1 [1,2,3-Benzotriazole] | 1.01 | 1.02 | 0.978 | 0.904 | 
COC(=O)CCCC(=O)OC [Dimethyl glutarate] | 0.966 | 1.05 | 1.05 | 1.13 | 
CN1C(=O)N(c2ccccc2Br)Cc2cnc(Nc3ccc4c(c3)OCC(CO)O4)nc21 (stereo unspecified) | 0.198 | 0.191 | 0.209 | 0.0276 | 
CC(=O)[C@H]1CC[C@H]2[C@@H]3CCC4=CC(=O)CC[C@]4(C)[C@H]3CC[C@]12C [Progesterone] | 0.973 | 1.02 | 1.24 | 0.311 | 
CCN(CC)C(=O)c1cccc(C)c1 |  |  |  | 1.79 | 
CC(=O)O [Acetic acid] | 0.901 | 0.923 | 0.914 | 1.41 | 
CCCCCCCCCC[N+](C)(C)[O-] [N,N-Dimethyldecylamine oxide] | 0.476 | 0.585 | 0.465 | 0.355 | 
O=S(=O)([O-])c1ccc(/N=N/c2c(O)ccc3cc(S(=O)(=O)[O-])ccc23)cc1.[Na+].[Na+] [FD&C Yellow 6] | 1.01 | 1.01 | 1.07 | 0.704 | 
CCNc1nc(N)nc(Cl)n1 [Deisopropylatrazine] | 0.991 | 0.951 | 0.879 | 0.243 | 0.898
CC(C)=CCC/C(C)=C\CO [(2Z)-3,7-Dimethylocta-2,6-dien-1-ol] | 1.14 | 1.06 | 1.09 | 1.45 | 
Cc1ccccc1Cl [2-Chlorotoluene] | 1.09 | 1.12 | 1.15 | 1.29 | 
C=CN1CCCC1=O [N-Vinyl-2-pyrrolidone] | 0.841 | 0.842 | 0.808 | 0.931 | 
O=C(N[C@@H](c1ccccc1)[C@@H]1CCCCN1)c1cccc(C(F)(F)F)c1Cl | 0.934 | 0.85 | 0.48 | 0.0297 | 
O=C(O)/C=C/C(=O)O.O=C1c2ccccc2C(=O)N1CCc1noc(-c2ccc(CN3CCCCCC3)s2)n1 | 0.928 | 0.898 | 0.893 | 0.711 | 
CCNc1cccc(C)c1 [N-Ethyl-3-methylaniline] | 1.02 | 0.916 | 0.98 | 0.872 | 
CCCCOC(=O)CCCCCCCCC(=O)OCCCC [Dibutyl decanedioate] | 0.969 | 1.05 | 1.06 | 1.01 | 

Two compounds from above, limited to Renilla luciferase signal (concentration: 10 uM) and Renilla luciferase signal (concentration: 0.1 uM).
Compound	Renilla luciferase signal (concentration: 10 uM)	Renilla luciferase signal (concentration: 0.1 uM)
Cc1ccccc1Cl [2-Chlorotoluene]	1.15	1.09
C=CN1CCCC1=O [N-Vinyl-2-pyrrolidone]	0.808	0.841
